PubChem BioAssay AID1224830 | NIAID, 2016

Screen: 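Host factors that control LPS-induced TNF expression in human macrophages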 (primary screen)
Cell system: human THP-1 monocytic leukaemia cells, TNF dual-luciferase reporter clone, PMA-differentiated to macrophage-like cells
Knock-down reagent: siRNA pool against human genes, 50 nM
Duration: LPS for 4 h, given about 3 days after siRNA transfection
Conditions: bacterial LPS (TLR4 ligand), 10 ng/ml
Measured: 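Ratio of firefly to renilla light, scaled to the plate median and expressed as a robust z-score per replicate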
Reading the numbers: TNF reporter robust z-score: higher = stronger TNF reporter response to LPS
Call rule: 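a well is active when its z-score exceeds 2.8 or falls below -1.5; control wells carry no call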
This is a random part of about 18,000 reagents. Over the whole deposit, about 2,900 (16%) are marked active. 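Calls are made per well; low scores hint the gene aids the LPS response, high scores that it dampens it.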 Entries without a mark were called inactive. Repeated entries: four replicate wells of each siRNA pool.

no.	gene symbol	TNF reporter robust z-score
1	BSCL2	0.03
2	BSCL2	-0.16
3	BSCL2	-1.03
4	BSCL2	-0.89
5	PRM2	0.25
6	PRM2	0.11
7	PRM2	-1.03
8	PRM2	-0.24
9	CARS2	0.31
10	CARS2	0.02
11	CARS2	-0.15
12	CARS2	0.12
13	MAGEA5P	2.37
14	MAGEA5P	-0.22
15	MAGEA5P	2.03
16	MAGEA5P	2.17
17	TRPA1	-0.53
18	TRPA1	-0.28
19	TRPA1	0.09
20	TRPA1	-0.1
21	MEP1B	0.4
22	MEP1B	0.88
23	MEP1B	-0.83
24	MEP1B	0.48
25	DCAF16	-0.98
26	DCAF16	-0.63
27	DCAF16	-1.66 (active)
28	DCAF16	-1.52 (active)
29	KPNA2	0.29
30	KPNA2	1.05
31	KPNA2	1.12
32	KPNA2	1.26
33	ZBTB21	0.76
34	ZBTB21	-0.55
35	ZBTB21	0.14
36	ZBTB21	-0.79
37	YME1L1	0.34
38	YME1L1	0.72
39	YME1L1	0.23
40	YME1L1	-0.1
41	IKBKB	-0.79
42	IKBKB	-1.31
43	IKBKB	-0.43
44	IKBKB	-1.32
45	MYBPC2	-0.83
46	MYBPC2	-0.54
47	MYBPC2	0.44
48	MYBPC2	0.86
49	POLR2L	0.42
50	POLR2L	-1.05
51	POLR2L	-0.13
52	GSAP	0.42
53	GSAP	-0.78
54	GSAP	-1.32
55	GSAP	-0.28
56	ESPL1	0.35
57	ESPL1	0.83
58	ESPL1	0.29
59	ESPL1	1.19
60	ABL2	3.68 (active)
61	ABL2	-0.04
62	ABL2	0.15
63	ABL2	0.37
64	OR52N5	-0.72
65	OR52N5	0.24
66	OR52N5	-0.11
67	OR52N5	-0.25
68	DPH1	-0.29
69	DPH1	0.6
70	DPH1	-1.39
71	DPH1	0.87
72	AHNAK	-0.75
73	AHNAK	-0.87
74	AHNAK	-0.13
75	AHNAK	-0.25

Hits, among the entries above:
gene symbol	TNF reporter robust z-score
DCAF16	-1.66 (active)
DCAF16	-1.52 (active)
ABL2	3.68 (active)

Additional results follow:
no.	gene symbol	TNF reporter robust z-score
76	LYPD1	-0.06
77	LYPD1	2.22
78	LYPD1	-0.37
79	LYPD1	1.91
80	COL3A1	0.21
81	COL3A1	0.03
82	COL3A1	0.02
83	COL3A1	0.06
84	CX3CR1	-0.7
85	CX3CR1	-0.88
86	CX3CR1	-0.86
87	CX3CR1	-0.32
88	AGFG1	-1.19
89	AGFG1	-1.02
90	AGFG1	-0.42
91	AGFG1	-0.85
92	ZNF750	-2.1 (active)
93	ZNF750	-1.14
94	ZNF750	-1.58 (active)
95	ZNF750	-1.44
96	VAMP8	0.37
97	VAMP8	0.5
98	VAMP8	-0.39
99	VAMP8	3.35 (active)
100	TDRD5	0.38
101	TDRD5	1.68
102	TDRD5	0.46
103	TDRD5	0.59
104	OR51B5	0.32
105	OR51B5	-1.07
106	OR51B5	-0.63
107	OR51B5	-1.04
108	DPF2	0.08
109	DPF2	0.64
110	DPF2	-1.9 (active)
111	DPF2	0.51
112	CRK	2.34
113	CRK	0.8
114	CRK	1.72
115	CRK	-0.21
116	PAQR4	-0.31
117	PAQR4	-0.2
118	PAQR4	0.92
119	PAQR4	-0.81
120	FASLG	-0.39
121	FASLG	0.14
122	FASLG	-0.22
123	FASLG	-0.81
124	ACAT1	2.07
125	ACAT1	2.32
126	ACAT1	6.85 (active)
127	ACAT1	0.36
128	DIRAS2	1.1
129	DIRAS2	0.25
130	DIRAS2	1.23
131	DIRAS2	1.51
132	LRG1	0.87
133	LRG1	1.18
134	LRG1	1.44
135	LRG1	1.08
136	ZNF410	-1.1
137	ZNF410	-1.03
138	ZNF410	-0.26
139	ZNF410	0.52
140	UCK1	0.26
141	UCK1	1.71
142	UCK1	0.03
143	UCK1	-0.69
